Test results published in paper PMC10321013.
No constants are given. Whether binding was seen depends on the method and setting. Binding seen in cells or lysates may run through a third protein. A yes stands for co-enrichment or nearness to the bait. Other partners may have been found.

Amino acid sequences for entries named in this document (tags omitted).
UniProt P25490: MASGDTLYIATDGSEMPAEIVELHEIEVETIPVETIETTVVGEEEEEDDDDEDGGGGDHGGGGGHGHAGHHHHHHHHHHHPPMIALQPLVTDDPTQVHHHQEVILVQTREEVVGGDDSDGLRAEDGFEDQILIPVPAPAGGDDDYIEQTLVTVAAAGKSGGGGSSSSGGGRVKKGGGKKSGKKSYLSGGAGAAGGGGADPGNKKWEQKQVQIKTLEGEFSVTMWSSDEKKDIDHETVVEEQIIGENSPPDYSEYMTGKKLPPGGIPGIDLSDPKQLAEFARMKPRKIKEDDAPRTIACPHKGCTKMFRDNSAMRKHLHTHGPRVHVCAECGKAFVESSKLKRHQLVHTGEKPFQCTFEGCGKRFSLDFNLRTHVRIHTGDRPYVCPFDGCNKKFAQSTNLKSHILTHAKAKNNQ
UniProt Q93009: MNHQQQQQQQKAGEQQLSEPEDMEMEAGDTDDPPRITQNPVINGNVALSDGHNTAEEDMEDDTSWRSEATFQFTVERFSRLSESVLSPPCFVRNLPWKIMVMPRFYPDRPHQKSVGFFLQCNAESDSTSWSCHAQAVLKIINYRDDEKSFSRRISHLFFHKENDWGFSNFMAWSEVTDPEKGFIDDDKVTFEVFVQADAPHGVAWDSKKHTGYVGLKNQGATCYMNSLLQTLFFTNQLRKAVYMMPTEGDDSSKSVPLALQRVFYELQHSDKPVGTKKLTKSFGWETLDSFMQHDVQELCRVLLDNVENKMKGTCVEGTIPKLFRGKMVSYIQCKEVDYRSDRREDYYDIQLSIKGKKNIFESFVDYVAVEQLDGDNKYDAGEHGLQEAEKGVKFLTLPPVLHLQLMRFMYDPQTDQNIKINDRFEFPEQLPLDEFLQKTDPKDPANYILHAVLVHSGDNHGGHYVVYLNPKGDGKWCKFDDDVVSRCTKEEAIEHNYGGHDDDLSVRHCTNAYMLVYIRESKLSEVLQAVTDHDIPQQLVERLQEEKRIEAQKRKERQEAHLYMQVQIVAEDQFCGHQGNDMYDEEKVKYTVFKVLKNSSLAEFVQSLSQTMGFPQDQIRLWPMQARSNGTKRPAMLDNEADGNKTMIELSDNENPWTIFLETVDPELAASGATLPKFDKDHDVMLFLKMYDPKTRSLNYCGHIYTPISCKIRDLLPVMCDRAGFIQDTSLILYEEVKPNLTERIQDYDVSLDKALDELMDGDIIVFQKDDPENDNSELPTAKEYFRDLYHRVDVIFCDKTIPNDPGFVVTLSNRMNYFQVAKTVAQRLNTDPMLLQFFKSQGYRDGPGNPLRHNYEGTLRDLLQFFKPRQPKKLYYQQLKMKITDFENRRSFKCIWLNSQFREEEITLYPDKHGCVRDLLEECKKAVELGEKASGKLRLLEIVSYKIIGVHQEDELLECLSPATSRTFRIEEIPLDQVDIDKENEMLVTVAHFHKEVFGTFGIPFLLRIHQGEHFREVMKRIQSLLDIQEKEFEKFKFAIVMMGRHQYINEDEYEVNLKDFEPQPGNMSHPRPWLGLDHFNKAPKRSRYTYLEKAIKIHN

Target: Flag-YY1 (UniProt P25490)
Test: affinity purification with mass spectrometry; lysate of PLC-PRF-5 cells expressing Flag-YY1 (0.3% Nonidet P-40, 150 mM NaCl, 50 mM Tris-HCl pH 7.4, 0.2 mM EDTA) on anti-Flag affinity beads, 12 h at 4 °C; eluted with Flag peptide; Coomassie bands analysed by LC-MS/MS

- binding: binds
Substance: Ubiquitin-specific protease 7 (USP7) (from UniProt Q93009 1-1102) (enzyme)
